# From publication PMC7368064
# Protein sequences, listed by entry. Tags and fused reporters are not part of them.
# UniProt E9PZQ0: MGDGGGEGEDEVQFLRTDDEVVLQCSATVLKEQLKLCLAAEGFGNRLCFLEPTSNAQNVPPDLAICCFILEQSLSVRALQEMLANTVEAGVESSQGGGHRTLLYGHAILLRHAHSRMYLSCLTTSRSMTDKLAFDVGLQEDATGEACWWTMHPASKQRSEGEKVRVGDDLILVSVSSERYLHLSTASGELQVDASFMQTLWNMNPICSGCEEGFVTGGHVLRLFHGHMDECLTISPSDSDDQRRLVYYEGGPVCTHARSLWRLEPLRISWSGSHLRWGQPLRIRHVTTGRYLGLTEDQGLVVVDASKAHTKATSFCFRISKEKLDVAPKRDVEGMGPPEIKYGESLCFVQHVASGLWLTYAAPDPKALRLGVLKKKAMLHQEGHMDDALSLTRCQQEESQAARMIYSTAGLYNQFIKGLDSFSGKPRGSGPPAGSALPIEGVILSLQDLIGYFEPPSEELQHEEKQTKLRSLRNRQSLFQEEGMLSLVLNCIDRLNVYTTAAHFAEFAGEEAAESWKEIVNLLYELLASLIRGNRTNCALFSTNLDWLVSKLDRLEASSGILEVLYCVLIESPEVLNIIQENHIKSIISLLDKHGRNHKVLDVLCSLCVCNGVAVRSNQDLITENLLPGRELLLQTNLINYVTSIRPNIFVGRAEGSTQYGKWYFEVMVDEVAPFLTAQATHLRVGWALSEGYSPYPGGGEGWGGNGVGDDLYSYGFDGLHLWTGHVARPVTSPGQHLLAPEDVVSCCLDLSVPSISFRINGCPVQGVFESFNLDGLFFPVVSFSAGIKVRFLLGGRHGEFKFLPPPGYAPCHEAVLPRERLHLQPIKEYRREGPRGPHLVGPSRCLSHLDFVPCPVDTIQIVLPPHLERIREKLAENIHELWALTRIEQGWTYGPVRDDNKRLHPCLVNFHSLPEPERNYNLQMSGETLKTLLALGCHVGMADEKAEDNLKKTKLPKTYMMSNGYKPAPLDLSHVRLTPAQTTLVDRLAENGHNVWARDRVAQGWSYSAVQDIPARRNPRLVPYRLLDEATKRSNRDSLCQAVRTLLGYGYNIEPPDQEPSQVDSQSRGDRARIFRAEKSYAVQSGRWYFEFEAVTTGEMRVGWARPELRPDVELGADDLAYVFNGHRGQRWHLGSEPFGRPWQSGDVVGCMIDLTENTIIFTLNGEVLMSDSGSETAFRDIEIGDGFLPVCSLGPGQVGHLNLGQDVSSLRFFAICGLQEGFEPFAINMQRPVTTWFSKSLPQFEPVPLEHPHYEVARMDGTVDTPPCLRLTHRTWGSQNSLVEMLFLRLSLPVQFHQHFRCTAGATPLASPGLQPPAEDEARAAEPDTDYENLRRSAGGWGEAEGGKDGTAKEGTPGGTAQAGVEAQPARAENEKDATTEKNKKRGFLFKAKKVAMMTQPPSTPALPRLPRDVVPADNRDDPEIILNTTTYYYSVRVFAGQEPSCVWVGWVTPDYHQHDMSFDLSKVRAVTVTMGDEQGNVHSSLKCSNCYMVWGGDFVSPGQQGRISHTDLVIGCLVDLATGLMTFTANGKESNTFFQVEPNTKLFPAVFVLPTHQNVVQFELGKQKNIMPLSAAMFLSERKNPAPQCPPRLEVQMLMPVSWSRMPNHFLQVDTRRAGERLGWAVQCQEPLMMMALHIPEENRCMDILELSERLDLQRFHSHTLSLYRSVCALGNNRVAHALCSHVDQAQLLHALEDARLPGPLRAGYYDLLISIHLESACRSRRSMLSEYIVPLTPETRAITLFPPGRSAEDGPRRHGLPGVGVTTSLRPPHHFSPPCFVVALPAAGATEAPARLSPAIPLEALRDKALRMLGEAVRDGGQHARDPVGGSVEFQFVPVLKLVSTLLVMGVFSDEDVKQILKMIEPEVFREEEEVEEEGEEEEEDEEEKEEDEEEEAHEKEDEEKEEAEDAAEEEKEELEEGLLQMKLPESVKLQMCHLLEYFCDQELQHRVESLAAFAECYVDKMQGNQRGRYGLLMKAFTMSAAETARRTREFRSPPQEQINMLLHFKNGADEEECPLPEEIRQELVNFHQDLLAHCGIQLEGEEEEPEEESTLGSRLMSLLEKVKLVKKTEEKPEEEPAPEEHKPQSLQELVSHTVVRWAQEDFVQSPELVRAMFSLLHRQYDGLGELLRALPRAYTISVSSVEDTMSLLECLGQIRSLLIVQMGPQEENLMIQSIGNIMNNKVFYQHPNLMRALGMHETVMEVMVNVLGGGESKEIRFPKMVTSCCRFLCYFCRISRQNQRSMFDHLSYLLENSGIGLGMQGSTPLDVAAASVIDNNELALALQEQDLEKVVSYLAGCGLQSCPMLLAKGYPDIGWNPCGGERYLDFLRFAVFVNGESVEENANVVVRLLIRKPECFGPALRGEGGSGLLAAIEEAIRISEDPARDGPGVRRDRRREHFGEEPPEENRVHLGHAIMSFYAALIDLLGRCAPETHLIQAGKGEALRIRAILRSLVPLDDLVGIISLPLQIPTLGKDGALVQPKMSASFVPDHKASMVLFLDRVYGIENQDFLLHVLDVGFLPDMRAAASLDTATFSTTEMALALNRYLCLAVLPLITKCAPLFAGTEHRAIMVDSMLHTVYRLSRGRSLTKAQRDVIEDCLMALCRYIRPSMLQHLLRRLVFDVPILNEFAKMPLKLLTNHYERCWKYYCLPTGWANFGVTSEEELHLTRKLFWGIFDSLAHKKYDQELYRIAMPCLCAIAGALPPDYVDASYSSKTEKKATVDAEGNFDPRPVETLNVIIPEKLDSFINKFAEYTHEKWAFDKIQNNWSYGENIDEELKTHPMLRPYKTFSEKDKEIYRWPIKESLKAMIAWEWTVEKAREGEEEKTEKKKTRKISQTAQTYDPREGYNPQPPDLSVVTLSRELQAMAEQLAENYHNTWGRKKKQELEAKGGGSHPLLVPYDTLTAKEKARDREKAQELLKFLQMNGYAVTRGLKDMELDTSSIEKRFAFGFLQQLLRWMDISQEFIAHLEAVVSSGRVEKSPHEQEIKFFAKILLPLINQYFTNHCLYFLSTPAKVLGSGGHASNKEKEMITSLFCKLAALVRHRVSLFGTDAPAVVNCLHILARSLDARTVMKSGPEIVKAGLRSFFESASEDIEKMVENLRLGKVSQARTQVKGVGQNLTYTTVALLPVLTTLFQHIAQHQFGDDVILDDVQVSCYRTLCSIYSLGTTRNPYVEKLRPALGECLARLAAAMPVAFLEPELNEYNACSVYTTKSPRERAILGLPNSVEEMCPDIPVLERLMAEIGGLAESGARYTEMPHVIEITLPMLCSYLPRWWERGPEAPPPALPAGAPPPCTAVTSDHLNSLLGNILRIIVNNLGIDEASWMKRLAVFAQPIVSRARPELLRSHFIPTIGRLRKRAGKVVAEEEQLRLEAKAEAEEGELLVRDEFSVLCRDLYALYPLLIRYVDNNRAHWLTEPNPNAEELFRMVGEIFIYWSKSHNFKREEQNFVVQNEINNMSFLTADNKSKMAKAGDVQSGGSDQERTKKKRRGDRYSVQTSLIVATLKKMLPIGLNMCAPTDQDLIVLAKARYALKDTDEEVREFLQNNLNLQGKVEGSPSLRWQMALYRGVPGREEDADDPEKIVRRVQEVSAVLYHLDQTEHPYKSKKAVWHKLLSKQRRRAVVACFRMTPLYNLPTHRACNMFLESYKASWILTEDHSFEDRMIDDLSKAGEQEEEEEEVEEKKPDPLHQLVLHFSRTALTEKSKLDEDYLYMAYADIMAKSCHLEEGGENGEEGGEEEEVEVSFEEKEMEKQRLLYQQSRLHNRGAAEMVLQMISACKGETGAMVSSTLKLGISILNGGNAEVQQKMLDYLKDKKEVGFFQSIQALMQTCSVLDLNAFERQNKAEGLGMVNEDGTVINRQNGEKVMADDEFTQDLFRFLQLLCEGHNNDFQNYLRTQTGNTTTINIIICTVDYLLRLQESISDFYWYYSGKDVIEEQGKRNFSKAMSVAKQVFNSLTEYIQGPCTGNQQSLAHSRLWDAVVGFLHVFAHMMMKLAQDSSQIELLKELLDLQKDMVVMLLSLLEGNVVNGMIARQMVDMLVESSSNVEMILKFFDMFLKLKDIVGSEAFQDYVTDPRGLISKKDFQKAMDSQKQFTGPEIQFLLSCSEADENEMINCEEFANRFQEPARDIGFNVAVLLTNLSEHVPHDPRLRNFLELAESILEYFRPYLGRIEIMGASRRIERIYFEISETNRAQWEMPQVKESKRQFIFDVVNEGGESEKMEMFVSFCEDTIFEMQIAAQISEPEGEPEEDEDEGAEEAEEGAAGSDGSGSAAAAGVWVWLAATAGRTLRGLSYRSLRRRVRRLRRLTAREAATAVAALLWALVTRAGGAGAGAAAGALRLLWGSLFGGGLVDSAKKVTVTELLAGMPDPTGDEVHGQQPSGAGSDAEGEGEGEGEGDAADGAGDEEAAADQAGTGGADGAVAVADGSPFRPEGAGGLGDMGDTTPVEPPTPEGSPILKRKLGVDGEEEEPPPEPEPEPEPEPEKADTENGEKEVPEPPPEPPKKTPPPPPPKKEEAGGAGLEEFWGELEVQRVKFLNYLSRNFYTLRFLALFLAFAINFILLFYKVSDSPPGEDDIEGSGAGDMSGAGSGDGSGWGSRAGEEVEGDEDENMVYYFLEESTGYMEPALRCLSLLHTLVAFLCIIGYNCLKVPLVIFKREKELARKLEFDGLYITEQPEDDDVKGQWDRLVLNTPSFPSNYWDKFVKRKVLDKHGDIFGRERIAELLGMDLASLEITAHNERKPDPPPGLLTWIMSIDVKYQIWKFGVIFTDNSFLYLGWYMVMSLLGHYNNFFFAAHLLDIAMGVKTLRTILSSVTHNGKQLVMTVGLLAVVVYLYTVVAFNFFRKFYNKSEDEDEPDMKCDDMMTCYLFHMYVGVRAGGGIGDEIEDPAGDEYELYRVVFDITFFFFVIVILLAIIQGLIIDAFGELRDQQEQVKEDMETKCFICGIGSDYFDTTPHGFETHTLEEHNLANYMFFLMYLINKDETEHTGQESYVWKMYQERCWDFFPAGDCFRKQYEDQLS
# No constants are given. Whether binding was seen depends on the method and setting. Binding seen in cells or lysates may run through a third protein. Some binding calls cover weakened binding; strength is not graded here.
# T1: MG53 (TRIM72, mitsugumin 53) (mouse (endogenous in murine skeletal muscle)) (UniProt Q1XH17)
# T1 sequence: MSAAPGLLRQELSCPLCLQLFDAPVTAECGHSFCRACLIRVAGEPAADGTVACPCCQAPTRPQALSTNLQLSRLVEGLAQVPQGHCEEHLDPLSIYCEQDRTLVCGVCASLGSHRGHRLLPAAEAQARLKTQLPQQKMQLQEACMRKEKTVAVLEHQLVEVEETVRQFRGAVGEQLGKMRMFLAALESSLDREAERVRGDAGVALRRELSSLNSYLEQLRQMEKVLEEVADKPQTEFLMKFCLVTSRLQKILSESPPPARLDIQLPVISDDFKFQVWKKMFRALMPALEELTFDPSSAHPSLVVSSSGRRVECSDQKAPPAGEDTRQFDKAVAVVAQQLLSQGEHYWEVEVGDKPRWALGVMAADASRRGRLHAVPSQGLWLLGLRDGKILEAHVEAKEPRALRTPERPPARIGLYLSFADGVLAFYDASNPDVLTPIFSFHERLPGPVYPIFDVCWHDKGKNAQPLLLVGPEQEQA
# Assays:
# [1] = target: T1, MG53 (TRIM72, mitsugumin 53) (mouse (endogenous in murine skeletal muscle)); experiment: co-IP; murine skeletal muscle lysate in RIPA lysis buffer, 1 mg protein; magnetic protein G beads with 2 ug antibody (MG53 or RyR; mouse and rabbit IgG as controls), 4 °C overnight, three washes in PBS; western blot; both directions
# [2] = target: ryanodine receptor 1 (RyR1) (mouse (endogenous in murine skeletal muscle)) (UniProt E9PZQ0); experiment: as above
Molecule,binding [1],binding [2]
ryanodine receptor 1 (RyR1) (from UniProt E9PZQ0 1-5035),binds,
"MG53 (TRIM72, mitsugumin 53) (protein, UniProt Q1XH17 1-477) MSAAPGLLRQELSCPLCLQLFDAPVTAECGHSFCRACLIRVAGEPAADGTVACPCCQAPTRPQALSTNLQLSRLVEGLAQVPQGHCEEHLDPLSIYCEQDRTLVCGVCASLGSHRGHRLLPAAEAQARLKTQLPQQKMQLQEACMRKEKTVAVLEHQLVEVEETVRQFRGAVGEQLGKMRMFLAALESSLDREAERVRGDAGVALRRELSSLNSYLEQLRQMEKVLEEVADKPQTEFLMKFCLVTSRLQKILSESPPPARLDIQLPVISDDFKFQVWKKMFRALMPALEELTFDPSSAHPSLVVSSSGRRVECSDQKAPPAGEDTRQFDKAVAVVAQQLLSQGEHYWEVEVGDKPRWALGVMAADASRRGRLHAVPSQGLWLLGLRDGKILEAHVEAKEPRALRTPERPPARIGLYLSFADGVLAFYDASNPDVLTPIFSFHERLPGPVYPIFDVCWHDKGKNAQPLLLVGPEQEQA",,binds
